Measurements published in PMC3537633.
No constants are given. Whether binding was seen depends on the method and setting. In cells and extracts the contact can be indirect. Some results given as binding are weak or reduced against the parent protein; the word gives no strength.

T1: Orc2p (S. cerevisiae (endogenous in yeast cells)), P32833
T1 chain: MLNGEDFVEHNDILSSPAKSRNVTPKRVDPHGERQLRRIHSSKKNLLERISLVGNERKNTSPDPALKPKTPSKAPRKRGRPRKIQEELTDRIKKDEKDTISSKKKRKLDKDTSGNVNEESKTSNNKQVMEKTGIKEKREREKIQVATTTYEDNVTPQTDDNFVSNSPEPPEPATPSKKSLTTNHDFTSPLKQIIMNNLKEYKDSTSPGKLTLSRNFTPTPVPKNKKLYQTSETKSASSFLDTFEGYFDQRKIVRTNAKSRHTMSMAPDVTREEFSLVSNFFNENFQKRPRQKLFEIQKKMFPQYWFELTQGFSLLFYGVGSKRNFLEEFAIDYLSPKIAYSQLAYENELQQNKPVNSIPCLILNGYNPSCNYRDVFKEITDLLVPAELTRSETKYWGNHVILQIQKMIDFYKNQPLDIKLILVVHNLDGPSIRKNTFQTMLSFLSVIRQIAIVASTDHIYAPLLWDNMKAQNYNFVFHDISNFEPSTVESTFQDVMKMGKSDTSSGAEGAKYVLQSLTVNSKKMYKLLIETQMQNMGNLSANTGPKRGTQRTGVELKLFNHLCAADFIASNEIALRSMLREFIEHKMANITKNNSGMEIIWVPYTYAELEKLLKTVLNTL


Target: T1, Orc2p (S. cerevisiae (endogenous in …))
Test: co-IP; endogenous proteins in sonicated whole cell lysates of exponentially growing yeast; antibody (Orc1, Orc2, Cdc6, 4H8, H5 or 8GW16) then protein A or protein G beads, 2 hours at 4°C, 4 washes with IP buffer; western blot
Conditions: remark: other sources report otherwise

Row | binding | Binder
1 | binds | Cdc6p, P09119 1-513 (protein) MSAIPITPTKRIRRNLFDDAPATPPRPLKRKKLQFTDVTPESSPEKLQFGSQSIFLRTKALLQKSSELVNLNSSDGALPARTAEYEQVMNFLAKAISEHRSDSLYITGPPGTGKTAQLDMIIRQKFQSLPLSLSTPRSKDVLRHTNPNLQNLSWFELPDGRLESVAVTSINCISLGEPSSIFQKIFDSFQDLNGPTLQIKNMQHLQKFLEPYHKKTTFVVVLDEMDRLLHANTSETQSVRTILELFLLAKLPTVSFVLIGMANSLDMKDRFLSRLNLDRGLLPQTIVFQPYTAEQMYEIVIQKMSSLPTIIFQPMAIKFAAKKCAGNTGDLRKLFDVLRGSIEIYELEKRFLLSPTRGSLNSAQVPLTPTTSPVKKSYPEPQGKIGLNYIAKVFSKFVNNNSTRTRIAKLNIQQKLILCTIIQSLKLNSDATIDESFDHYIKAITKTDTLAPLQRNEFLEICTILETCGLVSIKKTKCKGKTKRFVDKIDVDLDMREFYDEMTKISILKPFLH
2 | no binding | Orc1p, P54784 1-914 (protein) MAKTLKDLQGWEIITTDEQGNIIDGGQKRLRRRGAKTEHYLKRSSDGIKLGRGDSVVMHNEAAGTYSVYMIQELRLNTLNNVVELWALTYLRWFEVNPLAHYRQFNPDANILNRPLNYYNKLFSETANKNELYLTAELAELQLFNFIRVANVMDGSKWEVLKGNVDPERDFTVRYICEPTGEKFVDINIEDVKAYIKKVEPREAQEYLKDLTLPSKKKEIKRGPQKKDKATQTAQISDAETRATDITDNEDGNEDESSDYESPSDIDVSEDMDSGEISADELEEEEDEEEDEDEEEKEARHTNSPRKRGRKIKLGKDDIDASVQPPPKKRGRKPKDPSKPRQMLLISSCRANNTPVIRKFTKKNVARAKKKYTPFSKRFKSIAAIPDLTSLPEFYGNSSELMASRFENKLKTTQKHQIVETIFSKVKKQLNSSYVKEEILKSANFQDYLPARENEFASIYLSAYSAIESDSATTIYVAGTPGVGKTLTVREVVKELLSSSAQREIPDFLYVEINGLKMVKPTDCYETLWNKVSGERLTWAASMESLEFYFKRVPKNKKKTIVVLLDELDAMVTKSQDIMYNFFNWTTYENAKLIVIAVANTMDLPERQLGNKITSRIGFTRIMFTGYTHEELKNIIDLRLKGLNDSFFYVDTKTGNAILIDAAGNDTTVKQTLPEDVRKVRLRMSADAIEIASRKVASVSGDARRALKVCKRAAEIAEKHYMAKHGYGYDGKTVIEDENEEQIYDDEDKDLIESNKAKDDNDDDDDNDGVQTVHITHVMKALNETLNSHVITFMTRLSFTAKLFIYALLNLMKKNGSQEQELGDIVDEIKLLIEVNGSNKFVMEIAKTLFQQGSDNISEQLRIISWDFVLNQLLDAGILFKQTMKNDRICCVKLNISVEEAKRAMNEDETLRNL
